Laboratory results from article PMC7140707.
These are yes or no findings as the source states them, for the method shown. Binding seen in cells or lysates may run through a third protein. These calls come from enrichment with a bait or labelling near it, and not all partners need be listed. Where a sequence is shown, tags or fusion partners need not be part of it.

T1: His6-Gis1 (yeast (S. cerevisiae)) (UniProt Q03833)
T1 sequence: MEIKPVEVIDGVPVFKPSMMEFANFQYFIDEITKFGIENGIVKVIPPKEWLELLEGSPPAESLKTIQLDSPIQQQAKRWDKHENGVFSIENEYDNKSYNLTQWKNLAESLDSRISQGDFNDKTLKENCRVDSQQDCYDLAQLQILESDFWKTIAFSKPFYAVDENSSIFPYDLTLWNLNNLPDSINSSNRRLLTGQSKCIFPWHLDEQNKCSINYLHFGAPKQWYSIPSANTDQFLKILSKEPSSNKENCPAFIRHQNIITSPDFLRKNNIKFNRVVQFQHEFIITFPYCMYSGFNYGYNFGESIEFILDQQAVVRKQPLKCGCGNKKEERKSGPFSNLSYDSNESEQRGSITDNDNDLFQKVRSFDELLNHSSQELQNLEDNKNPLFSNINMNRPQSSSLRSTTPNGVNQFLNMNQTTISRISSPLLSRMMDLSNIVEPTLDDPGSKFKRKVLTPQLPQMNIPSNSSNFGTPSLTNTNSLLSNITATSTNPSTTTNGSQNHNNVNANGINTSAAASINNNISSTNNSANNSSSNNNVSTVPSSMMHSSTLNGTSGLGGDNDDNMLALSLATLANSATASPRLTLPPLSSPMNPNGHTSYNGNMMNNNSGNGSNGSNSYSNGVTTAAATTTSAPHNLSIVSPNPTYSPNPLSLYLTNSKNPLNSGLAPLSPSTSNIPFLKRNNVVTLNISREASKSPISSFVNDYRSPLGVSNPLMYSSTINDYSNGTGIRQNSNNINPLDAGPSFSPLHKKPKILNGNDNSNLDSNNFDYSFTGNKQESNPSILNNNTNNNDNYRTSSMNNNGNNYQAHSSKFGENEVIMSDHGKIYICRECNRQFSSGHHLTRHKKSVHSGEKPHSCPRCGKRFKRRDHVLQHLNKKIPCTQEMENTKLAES

B1: RRP3 (protein, UniProt P38712 1-501)
chain: MSKIVKRKEKKANDELTSLAEKIRAKALENQKKLIEAEKEGGSESDSEEDATAEKKKVLKSKSKSTVSTQNENTNEDESFESFSELNLVPELIQACKNLNYSKPTPIQSKAIPPALEGHDIIGLAQTGSGKTAAFAIPILNRLWHDQEPYYACILAPTRELAQQIKETFDSLGSLMGVRSTCIVGGMNMMDQARDLMRKPHIIIATPGRLMDHLENTKGFSLRKLKFLVMDEADRLLDMEFGPVLDRILKIIPTQERTTYLFSATMTSKIDKLQRASLTNPVKCAVSNKYQTVDTLVQTLMVVPGGLKNTYLIYLLNEFIGKTMIIFTRTKANAERLSGLCNLLEFSATALHGDLNQNQRMGSLDLFKAGKRSILVATDVAARGLDIPSVDIVVNYDIPVDSKSYIHRVGRTARAGRSGKSISLVSQYDLELILRIEEVLGKKLPKESVDKNIILTLRDSVDKANGEVVMEMNRRNKEKIARGKGRRGRMMTRENMDMGER
B2: PUB1 (protein, UniProt P32588 1-453)
chain: MSENNEEQHQQQQQQQPVAVETPSAVEAPASADPSSEQSVAVEGNSEQAEDNQGENDPSVVPANAITGGRETSDRVLYVGNLDKAITEDILKQYFQVGGPIANIKIMIDKNNKNVNYAFVEYHQSHDANIALQTLNGKQIENNIVKINWAFQSQQSSSDDTFNLFVGDLNVNVDDETLRNAFKDFPSYLSGHVMWDMQTGSSRGYGFVSFTSQDDAQNAMDSMQGQDLNGRPLRINWAAKRDNNNNNNYQQRRNYGNNNRGGFRQYNSNNNNNMNMGMNMNMNMNMNNSRGMPPSSMGMPIGAMPLPSQGQPQQSQTIGLPPQVNPQAVDHIIRSAPPRVTTAYIGNIPHFATEADLIPLFQNFGFILDFKHYPEKGCCFIKYDTHEQAAVCIVALANFPFQGRNLRTGWGKERSNFMPQQQQQGGQPLIMNDQQQPVMSEQQQQQQQQQQQQ
B3: RNH1 (protein, UniProt Q04740 1-348)
chain: MARQGNFYAVRKGRETGIYNTWNECKNQVDGYGGAIYKKFNSYEQAKSFLGQPNTTSNYGSSTHAGGQVSKPHTTQKRVHRRNRPLHYSSLTSSSACSSLSSANTNTFYSVKSNVPNIESKIFNNWKDCQAYVKHKRGITFKKFEDQLAAENFISGMSAHDYKLMNISKESFESKYKLSSNTMYNKSMNVYCDGSSFGNGTSSSRAGYGAYFEGAPEENISEPLLSGAQTNNRAEIEAVSEALKKIWEKLTNEKEKVNYQIKTDSEYVTKLLNDRYMTYDNKKLEGLPNSDLIVPLVQRFVKVKKYYELNKECFKNNGKFQIEWVKGHDGDPGNEMADFLAKKGASRR
B4: PHB2 (protein, UniProt P50085 1-310)
chain: MNRSPGEFQRYAKAFQKQLSKVQQTGGRGQVPSPRGAFAGLGGLLLLGGGALFINNALFNVDGGHRAIVYSRIHGVSSRIFNEGTHFIFPWLDTPIIYDVRAKPRNVASLTGTKDLQMVNITCRVLSRPDVVQLPTIYRTLGQDYDERVLPSIVNEVLKAVVAQFNASQLITQREKVSRLIRENLVRRASKFNILLDDVSITYMTFSPEFTNAVEAKQIAQQDAQRAAFVVDKARQEKQGMVVRAQGEAKSAELIGEAIKKSRDYVELKRLDTARDIAKILASSPNRVILDNEALLLNTVVDARIDGRGK
B5: NPA3 (protein, UniProt P47122 1-385)
chain: MSLSTIICIGMAGSGKTTFMQRLNSHLRAEKTPPYVINLDPAVLRVPYGANIDIRDSIKYKKVMENYQLGPNGAIVTSLNLFSTKIDQVIRLVEQKKDKFQNCIIDTPGQIECFVWSASGAIITESFASSFPTVIAYIVDTPRNSSPTTFMSNMLYACSILYKTKLPMIVVFNKTDVCKADFAKEWMTDFESFQAAIKEDQDLNGDNGLGSGYMSSLVNSMSLMLEEFYSQLDVVGVSSFTGDGFDEFMQCVDKKVDEYDQYYKQEREKALNLKKKKEEMRKQKSLNGLMKDLGLNEKSSAAASDNDSIDAISDLEEDANDGLVDRDEDEGVEREYTFPGEERTKGEVNENSAPDLQRRYQEAMQQVGKTASSETAENIAKYIRN
B6: RPC40 (protein, UniProt P07703 1-335)
chain: MSNIVGIEYNRVTNTTSTDFPGFSKDAENEWNVEKFKKDFEVNISSLDAREANFDLINIDTSIANAFRRIMISEVPSVAAEYVYFFNNTSVIQDEVLAHRIGLVPLKVDPDMLTWVDSNLPDDEKFTDENTIVLSLNVKCTRNPDAPKGSTDPKELYNNAHVYARDLKFEPQGRQSTTFADCPVVPADPDILLAKLRPGQEISLKAHCILGIGGDHAKFSPVSTASYRLLPQINILQPIKGESARRFQKCFPPGVIGIDEGSDEAYVKDARKDTVSREVLRYEEFADKVKLGRVRNHFIFNVESAGAMTPEEIFFKSVRILKNKAEYLKNCPITQ
B7: MSC1 (protein, UniProt Q03104 1-513)
chain: MKQFKLVNAVSASFVLIGLVLANSDSVFDKWTQEDLADYLRDNKKSLEKYATDSIEDLKTEASQVWDKHAQPKPWWQVWSSDSSSVSNSNPGWFGYTGSSDHPVSDWLFDTWSTDSLRNFLKKNGVDVDDAKASKDSLVKTAKENFNKISKSLKSSGYYPSSSYFDSWSTKDLQNWLNDNGIDYDKAVQSKDELVQKVKENIYRTSEKAEQQRLGLLESLDLAHQQILDTSGQIKDTVFDKWSSDQLTNWLESHKVNIDKNMAKKHDYLVRMAKENSANLKDDIYWYLDYMKRESSPFLTKTPEYVGSVWDSSKNFLTNLYSKFRGKTDNVINDTFLVGLDSWPKDKLKMFLDARGIKYSMLSTEHQLRELVKKSRNEKLKILPKDYQKYFDNSNWSLDDIKGWFADKKDDFQDSQTYSTIMQDFDKVSKNTNDAKDQIAKTWSNTFQSWSQEDLLQYLKSFGVPVKQTSTKDDLINLAKQNTQWLFGTVKEPAYKRYLHNVKNWSKSILGFN
B8: OSM1 (protein, UniProt P21375 33-501)
chain: MKQPVVVIGSGLAGLTTSNRLISKYRIPVVLLDKAASIGGNSIKASSGINGAHTDTQQNLKVMDTPELFLKDTLHSAKGRGVPSLMDKLTKESKSAIRWLQTEFDLKLDLLAQLGGHSVPRTHRSSGKLPPGFEIVQALSKKLKDISSKDSNLVQIMLNSEVVDIELDNQGHVTGVVYMDENGNRKIMKSHHVVFCSGGFGYSKEMLKEYSPNLIHLPTTNGKQTTGDGQKILSKLGAELIDMDQVQVHPTGFIDPNDRENNWKFLAAEALRGLGGILLHPTTGRRFTNELSTRDTVTMEIQSKCPKNDNRALLVMSDKVYENYTNNINFYMSKNLIKKVSINDLIRQYDLQTTASELVTELKSYSDVNTKDTFDRPLIINAFDKDISTESTVYVGEVTPVVHFTMGGVKINEKSQVIKKNSESVLSNGIFAAGEVSGGVHGANRLGGSSLLECVVFGKTAADNIAKLY
B9: RSA1 (protein, UniProt Q08932 1-381)
chain: MNYNNFENSKGDGHSRLPKPTYSGTLSDGYDESKIKRQKTDSAFNAAYSPHMYPNSPYYEGSWNTGYTPQLHHVAPHNQYFHPIQPSTQYNYTSPPNYTENYIPPVHQNISYAPALNLQKWPSSYCENTQALKNDKDYQTSISYEDVAIPTVKEIQLIEKNRGKDTFMNEISPVPSSKDQASAEPTEIPRKDPELANSNAEDDHNNLGLEDDDRDEQLESEGLGKVVLVPGTSIALITDEDVKKWREERKKMWLLKISNNKQKHMQEMGIKEDELKSQPSIFKESRKEKQFIQSIQNQVQRGNPKIDLNLKLIQREFANENSQLLDFIRELGDVGLLEYELSQQEKDVLFGSSEDNNKNHYKPNYKNRKPNLSRANFTRNK

biological target: T1, His6-Gis1 (yeast (S. cerevisiae)); assay: affinity purification with mass spectrometry; His6-Gis1 pre-bound to a Ni Sepharose 6 Fast Flow column; crude yeast extract (Δgis1 cells grown in air or under hypoxia, Δgis1Δhem1 cells at intermediate or high ALA) loaded, 4 °C, 2 h; eluted complexes separated by SDS-PAGE, bands excised, MS; only the target purified

binding, binds:
B1
B2
B3
B4
B5
B6
B7
B8
B9
